From patent publication US20200255478A1, “NOVEL COMPOUNDS ACTIVATING THE NRF2 PATHWAY” (Almirall, S.A., priority 2017, published 2020)
No constants are given. Whether binding was seen depends on the method and setting. Some binding calls cover weakened binding; strength is not graded here.

Amino acid sequences for entries named in this document (tags omitted). Residues count along the entry.
UniProt Q14145, residues 321-609: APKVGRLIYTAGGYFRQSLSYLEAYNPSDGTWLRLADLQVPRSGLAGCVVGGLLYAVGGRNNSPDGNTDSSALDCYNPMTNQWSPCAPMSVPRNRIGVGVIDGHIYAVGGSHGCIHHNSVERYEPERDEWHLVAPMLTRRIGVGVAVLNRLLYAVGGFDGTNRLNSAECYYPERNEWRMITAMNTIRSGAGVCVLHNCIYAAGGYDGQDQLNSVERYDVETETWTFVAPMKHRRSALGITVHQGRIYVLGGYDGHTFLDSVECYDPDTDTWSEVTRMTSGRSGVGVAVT

biological target: Keap1-Maltose Binding Protein (MBP tag) (UniProt Q14145); test: TR-FRET competition

binding, binds:
LQWDEETGECLP (head-to-tail amide Pro-Leu; Trp indole C2-S-Cys cross-bridge) [&1Leu-Gln-Trp(indol-2-yl-&2)-Asp-Glu-Glu-Thr-Gly-Glu-Cys(&2)-Leu-Pro&1]
LQCDAETGECLP (Cys-S-CH2-(1,2-phenylene)-CH2-S-Cys bridge) [{[H-Leu-Gln-Cys(&1)-Asp-Ala-Glu-Thr-Gly-Glu-Cys(&2)-Leu-Pro-OH][&1(1,2-phenylenediyl)dimethylene&2]}]
LQCDEETGECLP (Cys-S-CH2-(1,4-phenylene)-CH2-S-Cys bridge) [{[H-Leu-Gln-Cys(&1)-Asp-Glu-Glu-Thr-Gly-Glu-Cys(&2)-Leu-Pro-OH][&1(1,4-phenylenediyl)dimethylene&2]}]
FDEETGEC (N-terminal acetyl; C-terminal amide; Phe meta-C-S-Cys cross-bridge) [Acetyl-Phe(m-&1)-Asp-Glu-Glu-Thr-Gly-Glu-Cys(&1)-NH2]
LQCDAETGECLP (Cys-S-CH2-(1,3-phenylene)-CH2-S-Cys bridge) [{[H-Leu-Gln-Cys(&1)-Asp-Ala-Glu-Thr-Gly-Glu-Cys(&2)-Leu-Pro-OH][&1(1,3-phenylenediyl)dimethylene&2]}]
LQCDEETGECLP (Cys-S-CH2-(1,3-phenylene)-CH2-S-Cys bridge) [{[H-Leu-Gln-Cys(&1)-Asp-Glu-Glu-Thr-Gly-Glu-Cys(&2)-Leu-Pro-OH][&1(1,3-phenylenediyl)dimethylene&2]}]
FDEETGEC (N-terminal acetyl; C-terminal amide; Phe ortho-C-S-Cys cross-bridge) [Acetyl-Phe(o-&1)-Asp-Glu-Glu-Thr-Gly-Glu-Cys(&1)-NH2]
LQCDAETGECLP (head-to-tail amide Pro-Leu; Cys-S-CH2-(1,3-phenylene)-CH2-S-Cys bridge) [{[&1Leu-Gln-Cys(&2)-Asp-Ala-Glu-Thr-Gly-Glu-Cys(&3)-Leu-Pro&1][&2(1,3-phenylenediyl)dimethylene&3]}]
CDAETGEC (N-terminal acetyl; C-terminal amide; Cys-S-CH2-(1,2-phenylene)-CH2-S-Cys bridge) [{[Acetyl-Cys(&1)-Asp-Ala-Glu-Thr-Gly-Glu-Cys(&2)-NH2][&1(1,2-phenylenediyl)dimethylene&2]}]
LQCDEETGECLP (head-to-tail amide Pro-Leu; Cys-S-CH2-(1,4-phenylene)-CH2-S-Cys bridge) [{[&1Leu-Gln-Cys(&2)-Asp-Glu-Glu-Thr-Gly-Glu-Cys(&3)-Leu-Pro&1][&2(1,4-phenylenediyl)dimethylene&3]}]
LQWDEETGECLP (Trp indole C2-S-Cys cross-bridge) [H-Leu-Gln-Trp(indol-2-yl-&1)-Asp-Glu-Glu-Thr-Gly-Glu-Cys(&1)-Leu-Pro-OH]
LQCDEETGECLP (head-to-tail amide Pro-Leu; Cys-S-CH2-(1,3-phenylene)-CH2-S-Cys bridge) [{[&1Leu-Gln-Cys(&2)-Asp-Glu-Glu-Thr-Gly-Glu-Cys(&3)-Leu-Pro&1][&2(1,3-phenylenediyl)dimethylene&3]}]
FDEETGEC (N-terminal acetyl; C-terminal amide; Phe para-C-S-Cys cross-bridge) [Acetyl-Phe(p-&1)-Asp-Glu-Glu-Thr-Gly-Glu-Cys(&1)-NH2]
WDEETGEC (N-terminal acetyl; C-terminal amide; Trp indole C2-S-Cys cross-bridge) [Acetyl-Trp(indol-2-yl-&1)-Asp-Glu-Glu-Thr-Gly-Glu-Cys(&1)-NH2]
